# Measurements taken from ChEMBL document CHEMBL1687827, “Profiling the Aspergillus fumigatus proteome in response to caspofungin” (2011).
# Further values from the same series stand in other lists.
# Assays:
# Assay type in all cases: functional
# Aspergillus fumigatus [1] = experiment: Induction of change in extracellular cell wall glucanase Crf1/allergen Asp F9 protein level in iTRAQ-116 labelled secreted fraction of drug-resistant Aspergillus fumigatus EMFR-S678P at 0.12 ug/ml after 48 hrs in YPD medium by MS (MS/MS) analysis relative to control
# Aspergillus fumigatus [2] = experiment: Induction of change in citrate synthase Cit1, putative protein level in iTRAQ-116 labelled secreted fraction of drug-susceptible Aspergillus fumigatus KU80 delta-akuB at 0.12 ug/ml after 48 hrs in YPD medium by MS (MS/MS) analysis relative to control
# Aspergillus fumigatus [3] = experiment: Induction of change in hypothetical protein level in iTRAQ-116 labelled secreted fraction of drug-susceptible Aspergillus fumigatus KU80 delta-akuB at 0.12 ug/ml after 48 hrs in YPD medium by MS (MS/MS) analysis relative to control
# Aspergillus fumigatus [4] = experiment: Induction of change in phosphoglycerate kinase PgkA, putative protein level in iTRAQ-116 labelled secreted fraction of drug-resistant Aspergillus fumigatus EMFR-S678P at 0.12 ug/ml after 48 hrs in YPD medium by MS (MS/MS) analysis relative to control
# Aspergillus fumigatus [5] = experiment: Induction of change in cytochrome b5, putative protein level in iTRAQ114 labelled secreted fraction of drug-susceptible Aspergillus fumigatus KU80 delta-akuB at 0.12 ug/ml after 24 hrs in YPD medium by MS (MS/MS) analysis relative to control
# Aspergillus fumigatus [6] = experiment: Induction of change in 1,3-beta-glucanosyltransferase Gel1 protein level in iTRAQ-116 labelled secreted fraction of drug-resistant Aspergillus fumigatus EMFR-S678P at 0.12 ug/ml after 48 hrs in YPD medium by MS (MS/MS) analysis relative to control
# Aspergillus fumigatus [7] = experiment: Induction of change in ubiquitin (UbiC), putative gene expression in drug-susceptible Aspergillus fumigatus KU80 delta-akuB at 0.12 ug/ml after 24 hrs in YPD medium by microarray analysis relative to control
# Aspergillus fumigatus [8] = experiment: Induction of change in hypothetical gene locus AFUA_6G02310 expression in drug-susceptible Aspergillus fumigatus KU80 delta-akuB at 0.12 ug/ml after 48 hrs in YPD medium by microarray analysis relative to control
# Aspergillus fumigatus [9] = experiment: Induction of change in allergen Asp F3 protein level in iTRAQ-116 labelled secreted fraction of drug-susceptible Aspergillus fumigatus KU80 delta-akuB at 0.12 ug/ml after 48 hrs in YPD medium by MS (MS/MS) analysis relative to control
# Aspergillus fumigatus [10] = experiment: Induction of change in hypothetical protein locus AFUA_8G00430 level in iTRAQ-116 labelled secreted fraction of drug-susceptible Aspergillus fumigatus KU80 delta-akuB at 0.12 ug/ml after 48 hrs in YPD medium by MS (MS/MS) analysis relative to control
# Aspergillus fumigatus [11] = experiment: Induction of change in 60S ribosomal protein L9 b protein level in iTRAQ114 labelled cell wall fraction of drug-susceptible Aspergillus fumigatus KU80 delta-akuB at 0.12 ug/ml after 24 hrs in YPD medium by MS (MS/MS) analysis relative to control
# Aspergillus fumigatus [12] = experiment: Induction of change in glycine-rich RNA-binding protein, putative protein level in iTRAQ-118 labelled cell wall fraction of drug-susceptible Aspergillus fumigatus KU80 delta-akuB at 0.12 ug/ml after 24 hrs in YPD medium by MS (MS/MS) analysis relative to control
# Aspergillus fumigatus [13] = experiment: Induction of change in hexokinase Kxk, putative protein level in iTRAQ-116 labelled secreted fraction of drug-susceptible Aspergillus fumigatus KU80 delta-akuB at 0.12 ug/ml after 48 hrs in YPD medium by MS (MS/MS) analysis relative to control
# Aspergillus fumigatus [14] = experiment: Induction of change in nuclear transport factor NTF-2, putative protein level in iTRAQ-116 labelled secreted fraction of drug-susceptible Aspergillus fumigatus KU80 delta-akuB at 0.12 ug/ml after 48 hrs in YPD medium by MS (MS/MS) analysis relative to control
# Aspergillus fumigatus [15] = experiment: Induction of change in cytosolic small ribosomal subunit S4, putative protein level in iTRAQ114 labelled secreted fraction of drug-susceptible Aspergillus fumigatus KU80 delta-akuB at 0.12 ug/ml after 24 hrs in YPD medium by MS (MS/MS) analysis relative to control
# Aspergillus fumigatus [16] = experiment: Induction of change in 60s ribosomal protein L24, putative protein level in iTRAQ114 labelled secreted fraction of drug-susceptible Aspergillus fumigatus KU80 delta-akuB at 0.12 ug/ml after 24 hrs in YPD medium by MS (MS/MS) analysis relative to control
# Aspergillus fumigatus [17] = experiment: Induction of change in mycelial catalase Cat1 gene expression in drug-susceptible Aspergillus fumigatus KU80 delta-akuB at 0.12 ug/ml after 24 hrs in YPD medium by microarray analysis relative to control
# Aspergillus fumigatus [18] = experiment: Induction of change in cell wall biogenesis protein phosphatase Ssd1, putative protein level in iTRAQ-118 labelled cell wall fraction of drug-susceptible Aspergillus fumigatus KU80 delta-akuB at 0.12 ug/ml after 24 hrs in YPD medium by MS (MS/MS) analysis relative to control
# Aspergillus fumigatus [19] = experiment: Induction of change in eukaryotic translation elongation factor 1 subunit Eef1-beta, putative protein level in iTRAQ-116 labelled secreted fraction of drug-susceptible Aspergillus fumigatus KU80 delta-akuB at 0.12 ug/ml after 48 hrs in YPD medium by MS (MS/MS) analysis relative to control
# Aspergillus fumigatus [20] = experiment: Induction of change in siderochrome-iron transporter, putative gene expression in drug-susceptible Aspergillus fumigatus KU80 delta-akuB at 0.12 ug/ml after 24 hrs in YPD medium by microarray analysis relative to control
# Aspergillus fumigatus [21] = experiment: Induction of change in cell wall protein, putative gene expression in drug-susceptible Aspergillus fumigatus KU80 delta-akuB at 0.12 ug/ml after 48 hrs in YPD medium by microarray analysis relative to control
# Aspergillus fumigatus [22] = experiment: Induction of change in tripeptidyl-peptidase (TppA), putative protein level in iTRAQ-118 labelled cell wall fraction of drug-resistant Aspergillus fumigatus EMFR-S678P at 0.12 ug/ml after 24 hrs in YPD medium by MS (MS/MS) analysis relative to control
# Aspergillus fumigatus [23] = experiment: Induction of change in ubiquinol-cytochrome C reductase complex core protein 2, putative protein level in iTRAQ-116 labelled secreted fraction of drug-resistant Aspergillus fumigatus EMFR-S678P at 0.12 ug/ml after 48 hrs in YPD medium by MS (MS/MS) analysis relative to control
# Aspergillus fumigatus [24] = experiment: Induction of change in GPI-anchored cell wall organization protein Ecm33 protein level in iTRAQ-118 labelled cell wall fraction of drug-susceptible Aspergillus fumigatus KU80 delta-akuB at 0.12 ug/ml after 24 hrs in YPD medium by MS (MS/MS) analysis relative to control
# Aspergillus fumigatus [25] = experiment: Induction of change in Ribosomal protein L31e protein level in iTRAQ114 labelled secreted fraction of drug-susceptible Aspergillus fumigatus KU80 delta-akuB at 0.12 ug/ml after 24 hrs in YPD medium by MS (MS/MS) analysis relative to control
smiles,measurement,setting,value
CC[C@H](C)C[C@H](C)CCCCCCCCC(=O)N[C@H]1C[C@@H](O)[C@@H](NCCN)NC(=O)[C@@H]2[C@@H](O)CCN2C(=O)[C@H]([C@H](O)CCN)NC(=O)[C@H]([C@H](O)[C@@H](O)c2ccc(O)cc2)NC(=O)[C@@H]2C[C@@H](O)CN2C(=O)[C@H]([C@@H](C)O)NC1=O [CASPOFUNGIN],fold change (FC),Aspergillus fumigatus [1],-1.07
same,fold change (FC),Aspergillus fumigatus [2],-13.9
same,fold change (FC),Aspergillus fumigatus [3],>-16
same,fold change (FC),Aspergillus fumigatus [4],-1.07
same,fold change (FC),Aspergillus fumigatus [5],-2
same,fold change (FC),Aspergillus fumigatus [6],-1.15
same,fold change (FC),Aspergillus fumigatus [7],6.5
same,fold change (FC),Aspergillus fumigatus [8],4
same,fold change (FC),Aspergillus fumigatus [9],3.5
same,fold change (FC),Aspergillus fumigatus [10],4
same,fold change (FC),Aspergillus fumigatus [11],1.7
same,fold change (FC),Aspergillus fumigatus [12],-2.3
same,fold change (FC),Aspergillus fumigatus [13],3.2
same,fold change (FC),Aspergillus fumigatus [14],-3.5
same,fold change (FC),Aspergillus fumigatus [15],1.2
same,fold change (FC),Aspergillus fumigatus [16],1.3
same,fold change (FC),Aspergillus fumigatus [17],-4.1
same,fold change (FC),Aspergillus fumigatus [18],-2.5
same,fold change (FC),Aspergillus fumigatus [19],-2.5
same,fold change (FC),Aspergillus fumigatus [20],-4.8
same,fold change (FC),Aspergillus fumigatus [21],-2.1
same,fold change (FC),Aspergillus fumigatus [22],-1.07
same,fold change (FC),Aspergillus fumigatus [23],-1.07
same,fold change (FC),Aspergillus fumigatus [24],-3.2
same,fold change (FC),Aspergillus fumigatus [25],1.2
